# Screen size: about 53,000 sequences; about 3,700 (7%) were called active.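 How the source made its calls: active means gene knockdowns whose robust z-score for IL-1 alpha signal is at least 2 or at most -2, so actives lie on both sides; inactive means the rest.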 Some of the results follow.
# Assay: Components of the Cytosolic LPS Sensing Pathway: Gene Identification via Genome-wide siRNA Screen;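 further: robust z of the log signal after scaling to non-targeting control siRNA wells of the plate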
# Conditions: RAW264.7 macrophages, IL-1a HTRF, actives lie on both sides, screened at 100 nM (by protocol), cells primed 5 h with Pam3CSK4 first
# Procedure, shortened: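 IL-1a HTRF of supernatants after 24 hour LipidA transfection of Pam3CSK4-primed (5 hours) RAW264.7 cells, 48h post-siRNA transfection (100 nM). Scores: percent of plate negative-control median, then log-based robust z-score.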
row,Sequence,z-score
1,GCCAUCUUAAACAUGCCUGTT against Tdpoz2,inactive: 0.0164
2,GCAGAUCCGAGACAAGUAUTT against Cplx2,inactive: -1.91
3,CCUACAUCCUUACAUCAUUTT against 4921511C20Rik,inactive: -0.936
4,CCAAGUCGGACUUACGGUUTT against Cnpy3,inactive: -1.65
5,GUGCUGCGUGUGUCAAUGUTT against Asb11,inactive: 1.08
6,GGCACCUAACGACUUCAACTT against Pygm,inactive: 0.782
7,CGUGCUGUAUGGCAAAGUUTT against Bst1,inactive: 0.563
8,GGGCCUUUCACUUUUAUUATT against Tmprss2,inactive: 1.02
9,GGCACGAUAGUUUUUGAGATT against Myo1h,inactive: -1.59
10,GCAUACAGCUCAACAGUCATT against Padi2,inactive: -0.51
11,GGGCUCUGAGGAUACCAUUTT against Hck,inactive: 0.429
12,CGGUCAUGUCUACAUGUGCTT against Cfp,inactive: -0.0864
13,GCACAGUCAACUAACUGCGTT against Apom,inactive: -0.0609
14,GGUGUUUGCCAUGUUCGCATT against Avpr1a,inactive: -0.518
15,GGUAGAUGAUGAAAAACAATT against Erich3,active: -2.02
16,GGAGAAGCUGUUUGUUCUGTT against Ftcd,inactive: 0.507
17,GGGCUUCACCCUCAUACAATT against Pirt,active: 2.26
18,GGACCACAAAGCAGAAAAUTT against Klhdc7a,inactive: -0.959
19,GCUUCAACAUCAGUUUGGGTT against Olfr1392,inactive: 0.422
20,GCGACUUCAGAUUUCAUUATT against Srsf2,inactive: -0.439
21,GGAUCCAGACUUAAGCUUATT against Zgpat,active: 2.57
22,GGGACUUUGGGAAGUGAUGTT against Bbs5,inactive: -1.33

row,Sequence,z-score
1,GGCGGACUGUUACUUCACCTT against H2-Ob,inactive: 0.0162
2,GGAUAAAGUCUUCAGGUGGTT against Olfr1499,inactive: -0.606
3,CCGGAUGGGAAUCGCUAAATT against Slc22a13b,active: 2.17
4,GGGUAUCAAGUAUAUCUCUTT against Zfp532,inactive: 0.773
5,GGUUCCUACGAGUUCACUGTT against B130024G19Rik,active: -2.76
6,GGAAGAUGAUCUUGACCAGTT against Ccdc181,inactive: -0.025
7,CCGUAAACGAAAUCAUAGUTT against Wdr20rt,inactive: 0.618
8,CCUUGAAGCCUAGAAAUGATT against Tut4,inactive: -1.53
9,CCAAGUUCUUUAGUUAAAGTT against Fshb,inactive: 0.0269
10,GCGAACUGAUCAUCAACCGTT against Zfp566,inactive: -1.07
11,CGGAAGUUCCUCAUUGCAUTT against Ftcd,inactive: -0.281
12,GGCAGUGAGAACCAAGUUUTT against Ccl24,inactive: -0.913
13,CCUAAAAUACCUUUGUGAGTT against Nfkbie,inactive: -0.371
14,GCUAUAUGGUUGAAGAUUUTT against Ptprj,inactive: 0.0839
15,GGUCAGAUUCCUGAAAUUATT against Vbp1,inactive: -0.807
16,GGGAAAGAGUACUAAGAAUTT against Olfr678,inactive: -1.03
17,GGCUUUGAGUAAACUGUUCTT against Olfr1014,inactive: -1.83
18,AUAGAGAAUACAACACUACTT against Olfr196,inactive: 0.203
19,GGGAUAUUCAGCAAACAUUTT against Xpo5,inactive: 1.01
20,GCUACAGAUUAGGGACAUATT against Pcdhb2,active: 4.53
21,CCAGUAACUCAUGGUGCCUTT against Mapkapk3,inactive: 0.129
22,GGAAGAUACUGUGGUUUAUTT against Agbl3,active: 2.29

row,Sequence,z-score
1,GGAGGUGUGGCAUCUGGAUTT against Gsn,inactive: 1.19
2,GGAGUCCUCUAAUGUAAAUTT against Elovl4,inactive: 0.0471
3,GGAUGCUGAUUUAAAGACUTT against Rai14,inactive: 1.69
4,GGGACAAGUCAAAAACGAGTT against Cdc23,inactive: 1.13
5,GGAUGUGCAAUAAUUUUCUTT against Fzd4,inactive: 1.51
6,GCUUCAAGUCAACUUAGUCTT against Hal,inactive: 1.24
7,CCAACUCCUCUCUGGUUACTT against Olfr95,inactive: 0.31
8,GGUUUUUUGAUGUGGAUUGTT against Cyp4f14,inactive: 0.931
9,GCAUUUGAGGCACUUAGAATT against Lrrc4c,inactive: 0.367
10,GGAGGAGAAUGCCACAACUTT against Cd320,inactive: -0.227
11,CCGAAGCCUUGAAAGCAGUTT against Shq1,inactive: 0.302
12,GGACCAGAAACAAAUUAAGTT against Neurod6,inactive: 0.638
13,CAAUAGGACUCAUCCUGGUTT against Olfr670,inactive: -1.57
14,GGACAAUCUGAUUCAAGUATT against Ms4a2,inactive: 0.104
15,GGAAAUCCGAUAAACCACUTT against Grik1,inactive: -1.09
16,GGACUGCAUGAGAUUUCCCTT against Rhoc,inactive: -0.0707
17,GCAUUGAGAUGAGAGCCUATT against Uroc1,inactive: -0.167
18,GCUUUGGAUCAUUCAGACCTT against Celf2,inactive: -1.62
19,GGGAUUCUGGAAAUCUUUGTT against Esr2,inactive: 0.998
20,GGUUGUCGGAACCAACCCATT against Lrp5,inactive: -0.125
21,CCUACGGGAAACGAAAGCUTT against A730085E03Rik,inactive: 0.409
22,GGCUCAUGACCACCAAAACTT against Pef1,inactive: -1.04

row,Sequence,z-score
1,GGGAGUGAUGUUCUUAUUGTT against Slc35f2,inactive: -1.3
2,GGCAGCUAUAGGUUAGAUUTT against Gm5600,inactive: -0.674
3,GGACACAGAAUGUUCUUGGTT against Rps3,inactive: 0.029
4,GUUAUUUGUAUGGUGAGAUTT against Hpcal1,inactive: -1.06
5,CGUAUUGCCUUAGUGUAUGTT against Olfr433,active: -2.7
6,GCCAUGAGACACCUUCUCUTT against Olfr843,inactive: -1.96
7,CCGGAAGCUAUUGACCAUUTT against Tmem11,active: 3.21
8,AGUUCCCACCAAAAACUUATT against Iigp1b,inactive: -0.4
9,GGCCAAGUCAAAAUAUUCUTT against Gpr137b,inactive: 1.45
10,CCUAUAGCUUCGGCAAGACTT against Mlxip,inactive: 0.655
11,GGGUCUACCUGACAAUAAATT against Dgkk,inactive: -0.943
12,GGAAGAUCAUAAUGGACAGTT against Pcsk9,active: 6.01
13,GCAUCAAGGCUCAUAUGAUTT against Taf15,inactive: 0.384
14,GCAAGGCUUGGGUAACCAUTT against Apbb1ip,inactive: 0.141
15,GGAACAUCUUCACUUAGUATT against Kcna6,inactive: 1
16,CCAUUUUCUCAGUGAUCAATT against Taar7a,inactive: -0.314
17,GCACUUAUGGCCAUUUCAGTT against Emc4,inactive: 0.192
18,GGACAUGGCACAUCAAGUCTT against Rpusd4,inactive: -0.512
19,GGAUUACCUGGAGAAGUACTT against Pga5,inactive: -1.44
20,GGAAUCAGUUUCCCUGUAUTT against Igsf5,inactive: -0.632
21,GCAUGUGUAUGAUAAGAUCTT against Bbs5,inactive: 0.0354
22,GGAGAUACUAUGUUGCAUUTT against Fgf9,inactive: 0.537

row,Sequence,z-score
1,CCAAGAGUAACCUCUACAATT against Hivep3,inactive: -0.125
2,GGCAAAGUGAUAUUUUCAATT against Slc6a12,inactive: 0.394
3,GGUAAAUGCAGAGGGAACATT against Ak5,inactive: 0.836
4,GGAUUAAAGAUGCUUCCAATT against Ap1ar,inactive: 0.762
5,GCCCUGGCCACAUGUAGUUTT against Olfr98,inactive: 0.835
6,GCAGUCCAAAAAAUUCGGUTT against Stox2,active: -2.15
7,GGCAGAGACCACUAAUACCTT against Tmem131l,inactive: -0.881
8,GGAAGGUUGUCUUACUUUUTT against Pkd2,inactive: -0.322
9,GGAUGUUUUCCAGUAUGAATT against Nox1,inactive: 0.109
10,GCAGCUUGACCAAGUCCAUTT against Wipi1,inactive: 0.195
11,GGAAGCCCACUACAACAAUTT against Krt19,inactive: -0.236
12,GCAUAUUGUGCGACUUUUCTT against Utp15,active: -2.16
13,CGCGCUUUUUAGCAAAUAUTT against Hoxa7,inactive: 1.31
14,CCAUUUUACACCUCAAUCATT against Fggy,inactive: -0.687
15,GGUAGUUCAGAGACACGGGTT against Otos,inactive: 1.28
16,GCUAUACGAAGACUUCAGCTT against Hdhd3,inactive: 0.972
17,GGAAGAAAACAAUCAGAUGTT against Cd209a,inactive: -0.0123
18,GCAUCAGUAUGAGAUUAGGTT against Ccne2,inactive: -0.421
19,GCAAUGGACACGAUUCUUATT against Tvp23b,inactive: 0.87

# Reference: PubChem BioAssay AID1508600 (Functional Genomics Laboratory (NCATS/FGL), 2020)
